Values from PubChem BioAssay AID1508597 (Cure First, 2020).
This is an unselected part of the about 2,100 reagents, under one of the conditions tested. 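Calls flag viability under 80% in either arm, not effects specific to rucaparib; the reference for percent is not stated.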 A reagent listed more than once was tested more than once; the source does not tell the runs apart. Not given: the 100% reference.

Assay: 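Knock-downs altering ovarian cancer cell survival with or without PARP inhibitor rucaparib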 (primary screen)
System: human ovarian carcinoma lines grown from tumours: OCI-P5x (papillary serous) and OCI-C5x (clear cell)
Reagent: siRNA pool against human genes, 1.25 pmol siRNA per well
Time to read-out: 72 h or 96 h, depending on the cell culture
Conditions: rucaparib 20 µM (about IC30) or vehicle, present until read-out
Rucaparib or vehicle: Vehicle
Cell line: OCI-C5x (clear cell)
Measurement: 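ATP luminescence measured at 72 or 96 h according to the culture, then normalised and expressed as percent viability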
Direction: viability, normalised: higher = more viable cells remaining
Rule for the call: 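Active when normalised viability falls below 80 percent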
Meaning of the calls: active = viability under 80%; inactive = viability 80% or more

For MCL1 (MCL1 apoptosis regulator, BCL2 family member), technical replicate 1 the deposit lists viability, normalised (%) = 44.7; active.
For MCL1 (MCL1 apoptosis regulator, BCL2 family member), technical replicate 2, the values are viability, normalised (%) = 44.3; active.
MCL1 (MCL1 apoptosis regulator, BCL2 family member), technical replicate 3 showed viability, normalised (%) = 37.6; active.
For HUNK (hormonally up-regulated Neu-associated kinase), technical replicate 1 the deposit lists viability, normalised (%) = 59.2; active.
HUNK (hormonally up-regulated Neu-associated kinase), technical replicate 2 gave viability, normalised (%) = 48.5; active.
With HUNK (hormonally up-regulated Neu-associated kinase), technical replicate 3, the entry reads viability, normalised (%) = 45.2; active.
For IRAK4 (interleukin 1 receptor associated kinase 4), technical replicate 1, the values are viability, normalised (%) = 67.4; active.
With IRAK4 (interleukin 1 receptor associated kinase 4), technical replicate 2, the values are viability, normalised (%) = 74.4; active.
For IRAK4 (interleukin 1 receptor associated kinase 4), technical replicate 3 the deposit lists viability, normalised (%) = 60.3; active.
With WEE1 (WEE1 G2 checkpoint kinase), technical replicate 1, the values are viability, normalised (%) = 16.5; active.
With WEE1 (WEE1 G2 checkpoint kinase), technical replicate 1 the deposit lists viability, normalised (%) = 19.8; active.
For WEE1 (WEE1 G2 checkpoint kinase), technical replicate 2 the deposit lists viability, normalised (%) = 17.4; active.
WEE1 (WEE1 G2 checkpoint kinase), technical replicate 2 scored viability, normalised (%) = 34.2; active.
For WEE1 (WEE1 G2 checkpoint kinase), technical replicate 3, the values are viability, normalised (%) = 26.6; active.
WEE1 (WEE1 G2 checkpoint kinase), technical replicate 3 gave viability, normalised (%) = 15.5; active.

In a second layout: 2 of the entries above.
gene | technical replicate | viability, normalised (%) | Call
HUNK (hormonally up-regulated Neu-associated kinase) | 2 | 48.5 | active
HUNK (hormonally up-regulated Neu-associated kinase) | 3 | 45.2 | active

The results go on.
KMT2B (lysine methyltransferase 2B), technical replicate 1 scored viability, normalised (%) = 54.8; active.
For KMT2B (lysine methyltransferase 2B), technical replicate 2 the deposit lists viability, normalised (%) = 46.9; active.
For KMT2B (lysine methyltransferase 2B), technical replicate 3 the deposit lists viability, normalised (%) = 53.9; active.
For MARK1 (microtubule affinity regulating kinase 1), technical replicate 1, the values are viability, normalised (%) = 50.1; active.
MARK1 (microtubule affinity regulating kinase 1), technical replicate 2 scored viability, normalised (%) = 76.7; active.
MARK1 (microtubule affinity regulating kinase 1), technical replicate 3 gave viability, normalised (%) = 76.3; active.
With LIMK1 (LIM domain kinase 1), technical replicate 1, the entry reads viability, normalised (%) = 65; active.
With LIMK1 (LIM domain kinase 1), technical replicate 2, the values are viability, normalised (%) = 51.1; active.
LIMK1 (LIM domain kinase 1), technical replicate 3 gave viability, normalised (%) = 52.8; active.
CTPS2 (CTP synthase 2), technical replicate 1 gave viability, normalised (%) = 49.8; active.
CTPS2 (CTP synthase 2), technical replicate 2 showed viability, normalised (%) = 59; active.
CTPS2 (CTP synthase 2), technical replicate 3 showed viability, normalised (%) = 69.6; active.
With HMGN3 (high mobility group nucleosomal binding domain 3), technical replicate 1, the values are viability, normalised (%) = 71.3; active.
HMGN3 (high mobility group nucleosomal binding domain 3), technical replicate 2 showed viability, normalised (%) = 59.8; active.
For HMGN3 (high mobility group nucleosomal binding domain 3), technical replicate 3 the deposit lists viability, normalised (%) = 72.9; active.
MSH5 (mutS homolog 5), technical replicate 1 showed viability, normalised (%) = 44; active.
With MSH5 (mutS homolog 5), technical replicate 2, the values are viability, normalised (%) = 57.9; active.
For MSH5 (mutS homolog 5), technical replicate 3, the entry reads viability, normalised (%) = 62.6; active.
